One substance from patent publication US20240110200A1, “Recombinant AAV Vectors and Gene Therapies for Treating Brain Diseases” (City University of Hong Kong, priority 2022, published 2024) can be followed below.

By UniProt entry, the sequences of proteins in these tests, tags left out. Where a name states a change or a piece, a line headed by the entry shows the natural chain unless it says otherwise.
UniProt Q9NS66: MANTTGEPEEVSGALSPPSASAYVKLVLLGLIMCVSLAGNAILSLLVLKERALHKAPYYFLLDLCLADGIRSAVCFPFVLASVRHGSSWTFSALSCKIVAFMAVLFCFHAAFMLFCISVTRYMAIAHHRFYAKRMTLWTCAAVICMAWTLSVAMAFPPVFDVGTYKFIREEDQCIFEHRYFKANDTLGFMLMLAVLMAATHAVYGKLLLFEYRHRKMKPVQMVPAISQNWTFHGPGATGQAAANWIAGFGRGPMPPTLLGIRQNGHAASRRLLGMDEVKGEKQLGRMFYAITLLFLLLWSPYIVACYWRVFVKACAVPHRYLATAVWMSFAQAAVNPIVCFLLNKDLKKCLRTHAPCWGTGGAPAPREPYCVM
UniProt P06307: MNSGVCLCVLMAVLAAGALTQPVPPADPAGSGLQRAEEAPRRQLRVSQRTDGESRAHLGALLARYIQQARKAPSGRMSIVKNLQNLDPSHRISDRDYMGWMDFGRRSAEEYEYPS

These are yes or no findings as the source states them, for the method shown. Some binding calls cover weakened binding; strength is not graded here.

Assay [1] deals with Flag-GPR173 on transfected HEK293T cells (UniProt Q9NS66). In words: cell surface binding assay on transfected HEK293T cells (FIG. 4B).
Assay [2] shares this target. Description: competitive membrane surface labelling assay on Flag-GPR173 HEK293T cells, competitor HA2A8s.

In the case of “sulphated CCK8 (CCK8s) (from UniProt P06307 96-103) (peptide)”, the binding entry in assay [1] and in assay [2] was “binds” each time.
